Measured values from the supplement of paper PMC3334620.
Over roughly 33,000 sequences, “E-score (-0.5 to 0.5)” has its median near -0.0014; the highest 2% begin near 0.25. Some of the results follow.

biological target: T1, Cad1 (UniProt P24813); test: PBM E-score (8-mer binding enrichment) (E-score (-0.5 to 0.5)); higher = stronger / more preferred TF binding; conditions: protein concentration: 100 nM; construct: GST-full length
T1 sequence: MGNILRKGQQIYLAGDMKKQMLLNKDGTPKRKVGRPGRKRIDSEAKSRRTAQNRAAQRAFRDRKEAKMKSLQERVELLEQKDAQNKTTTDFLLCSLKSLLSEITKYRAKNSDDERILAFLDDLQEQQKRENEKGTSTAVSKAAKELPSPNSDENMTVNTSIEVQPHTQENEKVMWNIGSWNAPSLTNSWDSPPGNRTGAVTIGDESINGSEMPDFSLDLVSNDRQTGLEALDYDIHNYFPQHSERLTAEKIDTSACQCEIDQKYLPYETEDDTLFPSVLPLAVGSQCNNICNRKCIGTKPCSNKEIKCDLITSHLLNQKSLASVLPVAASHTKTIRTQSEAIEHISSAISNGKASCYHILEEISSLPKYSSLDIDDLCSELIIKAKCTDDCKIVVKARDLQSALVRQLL
Outline: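 Detection of bound protein used fluorescent anti-GST, with scans normalised by masliner. The proteins were GST-tagged yeast transcription factors applied at about 100-200 nM to universal all-10-mer Agilent arrays made double-stranded by primer extension. Each ungapped eight-base word, pooled with its reverse complement, was scored with an E-score from the Universal PBM Analysis Suite.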

Point of comparison: GCACGGGC, “PBM E-score” value -0.216. Against it:
- TAAACCAA — higher, -0.00347
- ATTTACTC — higher, 0.174
- AGGATGTG — higher, -0.0171
- ACGGGCCG — higher, -0.124
- TCCAGTCA — higher, -0.124
- GATTTAGC — higher, 0.0176
- CGGCTGCC — higher, -0.0978
- AATTCAAC — higher, 0.121
- CGATGGAC — higher, 0.132
- ATATTTGG — higher, 0.146
- CTCCGGAA — higher, 0.00101
- GACTACGC — higher, -0.141
- ACTATCCG — higher, 0.204
- TCTTTCCA — higher, -0.116
- CCAGCCCG — higher, -0.102
- CCTACAGG — lower, -0.239
- ATAACAAG — higher, 0.205
- AAAGGTAA — higher, -0.00154
- AAAAGTTA — higher, 0.0315
- ACTTTCGA — higher, 0.0684
- GCGTACGC — higher, 0.0822
- GGCAGTGA — higher, -0.103
- CAAAAGAG — higher, -0.0845
- AATCGGCA — higher, 0.173
- CTCACTGA — higher, -0.0364
- CACCGGCC — higher, -0.209
- GGGCAGAC — lower, -0.263
- ACTCAGGA — higher, -0.0464
- GCCGCGCA — higher, 0.027
- AAGATCGG — higher, -0.207
- GCGGTAAC — higher, 0.162
- AAAACGTG — higher, 0.099
- AACGAAGA — higher, 0.115
- GGCCGAAA — higher, 0.171
- CTCCTTGC — higher, -0.141
- AGAATGGG — higher, -0.171
- CCTATGGC — higher, 0.0419
- AAACGGTC — higher, 0.0328
- ATGGAACA — higher, 0.0806
- AGGGAAAC — higher, -0.158
- TATGATCA — higher, 0.212
- AGAGGTAA — higher, 0.0108
- GATCCGAA — higher, 0.121
- CCCTTAGC — higher, -0.097
- CGTTAAAC — higher, 0.148
- CACTAAAA — higher, 0.19
- GGAAAAGA — higher, -0.191
- ATTACGGA — higher, 0.183
- AGGATCTA — lower, -0.266
- GATGTAAA — higher, 0.13
- TCGTAACA — higher, 0.149
- AATCCCGT — higher, 0.126
- GGCCGCAC — higher, -0.144
- GACGTCAA — higher, 0.00094
- ACGCGTCT — higher, 0.101
- AGTGCCCG — higher, -0.0933
- CTGCGCTC — higher, -0.191
- GCAAGTGC — higher, -0.205
- AACCCTAA — higher, -0.0165
- ATAGAAGG — higher, -0.198
- AGCCCCTG — lower, -0.451
- ATGATGTG — higher, -0.0446
- ATAGGTCC — higher, 0.166
- AACGTAAA — higher, 0.0278
- GTCTTTTA — higher, -0.185
- CGTCCGAA — higher, 0.1
- AACGGCGC — higher, 0.0704
- CACGGCAG — higher, 0.00744
- AGATTTTC — higher, 0.122
- CGTCAGAC — higher, 0.0191
- ACAGGGCC — higher, -0.00762
- AACCGTTG — higher, 0.0938
- CGTGGACA — higher, -0.0853
- ACGGTCGA — higher, -0.117
- CGCATGCG — higher, 0.152
- AAAACTGC — higher, 0.007
- CTAGGAAC — higher, -0.146
- CTACAGCC — lower, -0.242
- AAAGCCGT — higher, 0.0224
- CTGAATGA — higher, 0.0667
- ATCTTTTA — higher, 0.0275
- CAGACCGG — higher, -0.12
- CTGAATCA — higher, 0.11
- GCATGGAC — higher, -0.0417
- GTTGTTTA — higher, 0.145
- AGGCCAAC — higher, 0.0871
- CGAGACAC — higher, -0.197
- ACTCTAGA — higher, 0.00207
- ATCTTGGA — higher, -0.0402
- ATAAACGA — higher, 0.144
- CAACGACG — higher, 0.0367
- AGCGTGTG — higher, 0.162
- GCGGCCGC — higher, 0.175
- ACGAAGTC — higher, -0.0674
- ACACTCAT — higher, 0.0832
- CCCTAATC — higher, -0.076
- ACGAAAGG — higher, 0.0577
- CATGCCCA — lower, -0.327
- GCGGTTAA — higher, -0.0387
- GACCTAGC — higher, 0.0662
- CTCGTGAA — higher, -0.0632
- CCATCGGA — lower, -0.239
- CACGAGAA — higher, -0.106
- GCTTTTAC — higher, -0.0563
- GTGAACGA — higher, 0.0597
- ACTTATCT — higher, 0.0827
- ACGGTTTA — higher, 0.0206
- AGAGGCCG — lower, -0.24
- ATATAAAA — higher, 0.0859
- CCGGCACA — higher, 0.0937
- GCATAACA — higher, 0.0962
- CGATCGAG — higher, 0.142
- ATTGATGC — higher, 0.153
- AAGGAGCC — lower, -0.283
- AAACTTTC — higher, 0.00621
- AGGGGCGC — higher, -0.103
- ACAGGCGT — higher, -0.0624
- ATCTTTAA — higher, 0.109
- ACTTATAT — higher, 0.202
- CGGTGTTC — higher, 0.0183
- AGGAGGAG — lower, -0.284
- CTTTGATA — higher, 0.142
- CAAAGCAG — higher, -0.0243
- CCATGCTC — lower, -0.317
- CAAAAGAA — higher, 0.186
- CTCTGTGC — higher, -0.056
- CAAGATTA — higher, 0.125
- CTTGTCTC — higher, -0.0523
- AAAGCCCC — lower, -0.269
- CAGAGAAA — higher, 0.158
- ATCGTGTC — higher, 0.03
- ACCAGTCG — higher, 0.00162
- AATTTACG — higher, 0.19
- AAGTCGGC — higher, -0.121
- GAGATGCA — higher, -0.161
- ATGCTGGG — higher, -0.0707
- AGGCGAAT — higher, -0.108
- GGTACGAA — higher, 0.00468
- GCTCACAC — higher, 0.0652
- CAATCCCA — lower, -0.217
- ATACATGG — higher, 0.0689
- CGCTTGAA — higher, 0.179
- AAACAATC — higher, 0.116
- ATCAGAGG — higher, -0.0692
- ATTAATGA — higher, 0.306
- ACGTGAGG — higher, 0.0639
- TAAAGGTA — higher, -0.0464
- CACTAAAG — higher, -0.00408
- CTTTGATC — higher, 0.0608
- ATTACAAC — higher, 0.139
- ATACCTCA — higher, -0.0623
- AAGACAAA — higher, 0.117
- CAGCGGAC — higher, 0.0365
- ACTTCCTC — higher, -0.196
- CAGCCCTG — higher, -0.178
- CTGGATTC — higher, -0.171
- CGTTCCGC — higher, 0.13
- AGCTGCCA — higher, 0.0461
- CAAACTAC — higher, -0.0121
- GCTCCCAC — higher, -0.113
- ATTTTCAA — higher, 0.162
- ACATAGAA — higher, 0.0216
- CCCACTTA — higher, 0.187
- CGCAACAG — higher, -0.00109
- CCAGATCG — higher, -0.126
- AGTACACA — higher, 0.0961
- GCTTTCGA — lower, -0.246
- CTGGTTTA — higher, -0.0899
- CACCTAAC — higher, 0.014
- TCTCGACA — higher, 0.0999
- ATTGTTTC — higher, 0.183
